# Assay results published in PMC6657595, “A DNA-Binding Protein Tunes Septum Placement during Bacillus subtilis Sporulation”.
# Substitutions are numbered along the chain they refer to. The exact form of at least one protein or probe is not confirmed. A weaker result is weaker than the reference pair of the same experiment. Where a protein sequence is shown, tags need not be part of it.
# What was measured:
# [1] = target: T1, RefZ L153R-His6 (Bacillus subtilis 168) (UniProt O34970); assay: BLI; settings: within 2-fold of WT, P = 0.003; recombinant protein; protein details: C-terminal His6 (pET-24b NheI/XhoI); label: 5' biotin on S27 strand
# T1 sequence (looked up, limits assumed): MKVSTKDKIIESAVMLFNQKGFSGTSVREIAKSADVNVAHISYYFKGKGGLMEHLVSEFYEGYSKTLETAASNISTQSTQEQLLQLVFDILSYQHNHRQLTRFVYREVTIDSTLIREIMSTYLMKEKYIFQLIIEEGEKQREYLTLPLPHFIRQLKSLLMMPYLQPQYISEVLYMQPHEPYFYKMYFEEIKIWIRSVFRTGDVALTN
# [2] = target: T2, RefZ R116W-His6 (Bacillus subtilis 168) (UniProt O34970); assay: BLI; settings: within 2-fold of WT, P = 0.05; recombinant protein; protein details: C-terminal His6 (pET-24b NheI/XhoI); label: 5' biotin on S27 strand
# T2 sequence (looked up, limits assumed): T1 sequence (looked up, limits assumed) with R116W, R153L
sequence,measurement,setting,value
GCCTTTTCGTTTTGAACAAACGTTTGATTAAAACAAATAGC (double strand) [RBML1 41-bp],binding result,[1],binds more weakly
same,binding result,[2],binds more weakly
